Measurements as given in paper PMC10663520, “Qa-SNARE syntaxin 18 mediates lipid droplet fusion with SNAP23 and SEC22B” (Cell Discovery, 2023).
Results are given in words; binding and its absence hold for the method and conditions named. For some assays here: In cells and extracts the contact can be indirect. Some results given as binding are weak or reduced against the parent protein; the word gives no strength. For some assays here: Where a sequence is shown, tags or fusion partners need not be part of it. One block for each molecule: values may come before it.

Sequences of proteins named here, by UniProt entry; tags and fusion partners are left off. A change or cut given only in a name is not applied to a line headed by its entry. Residues count along the entry.
UniProt O75396: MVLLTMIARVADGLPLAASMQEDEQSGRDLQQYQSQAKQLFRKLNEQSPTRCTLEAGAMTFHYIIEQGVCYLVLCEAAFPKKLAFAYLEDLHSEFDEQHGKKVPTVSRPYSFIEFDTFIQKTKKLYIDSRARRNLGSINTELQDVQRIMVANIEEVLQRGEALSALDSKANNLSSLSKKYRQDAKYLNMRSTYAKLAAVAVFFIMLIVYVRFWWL
His-SEC22B-SNARE (134-194) of the co-expressed mini-SNARE complex: residues 134-194 of O75396

Columns and labels:
[1] = target: T1, endogenous STX18 (HepG2) (human (endogenous in HepG2)) (UniProt Q9P2W9); assay: co-IP; endogenous IP in HepG2 cells without overexpression; western blot
T1 sequence: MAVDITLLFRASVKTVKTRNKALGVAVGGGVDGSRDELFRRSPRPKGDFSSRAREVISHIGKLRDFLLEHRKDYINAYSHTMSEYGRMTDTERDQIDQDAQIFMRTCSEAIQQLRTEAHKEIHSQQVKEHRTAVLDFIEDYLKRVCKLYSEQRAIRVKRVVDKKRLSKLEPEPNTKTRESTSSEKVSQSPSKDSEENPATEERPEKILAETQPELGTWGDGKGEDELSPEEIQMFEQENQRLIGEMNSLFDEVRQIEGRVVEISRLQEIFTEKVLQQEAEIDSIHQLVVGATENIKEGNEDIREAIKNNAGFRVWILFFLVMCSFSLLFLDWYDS

[2] = target: T2, Flag-STX18 WT (syntaxin 18) (UniProt Q9P2W9); assay: co-IP; HEK293T co-transfected 36 h with a Flag-STX18 construct and GFP-SEC22B or GFP-SNAP23; lysis in TAP buffer (20 mM Tris-HCl pH 7.5, 150 mM NaCl, 0.5% NP-40); Flag IP overnight; western blot
T2 sequence: T1 sequence

Flag-STX18 (Huh7) = target: T3, Flag-STX18 (Huh7) (UniProt Q9P2W9); assay: co-IP; Huh7 transfected with Flag-STX18 36 h, with or without 0.2 mM OA-BSA for 2 h, 6 h, 12 h; Flag IP; western blot
T3 sequence: T1 sequence

[3] = target: His-SEC22B-SNARE (134-194) of the co-expressed mini-SNARE complex (UniProt O75396); assay: SEC; four SNARE domains co-expressed in E. coli, co-purified on Ni-NTA by the His tags of SEC22B-SNARE and SNAP23-SNARE1, then Superdex 75 Increase 10/300 GL in 50 mM HEPES pH 7.4, 150 mM NaCl, 0.5 mM TCEP; single peak; SDS-PAGE and MS of the bands
[4] = target: T4, His-SNAP23-SNARE1 (14-76) of the co-expressed mini-SNARE complex (UniProt O00161); assay: as above
T4 sequence: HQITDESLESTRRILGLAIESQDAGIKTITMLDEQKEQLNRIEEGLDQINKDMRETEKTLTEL

binding [1]: binds
Molecule: endogenous SEC22B (HepG2) (from UniProt O75396 1-215)

binding [2]: binds
Molecule: GFP-SEC22B (from UniProt O75396 1-215)

binding [3]: binds
B1: His-SNAP23-SNARE1 (14-76) of the co-expressed mini-SNARE complex (domain or fragment, UniProt O00161 14-76)
chain: T4 sequence

binding [3]: binds | binding [4]: binds
B2: STX18-SNARE (243-305), individually purified (domain or fragment, UniProt Q9P2W9 243-305, looked up)
chain: IGEMNSLFDEVRQIEGRVVEISRLQEIFTEKVLQQEAEIDSIHQLVVGATENIKEGNEDIREA
notes: syntaxin 18 (STX18), SNARE domain, residues 243-305, in pGEX-4T-1 with GST-TEV-FLAG at the N-terminus; The TEV site lies between GST and FLAG, so the FLAG tag should remain after cleavage (surmised); source: E. coli BL21 (DE3), purified (Glutathione Sepharose 4B, TEV on beads, Superdex 75); not shown: GST, N-terminal, cleaved

binding (Flag-STX18 (Huh7)): binds
B5: SNAP23 (Huh7) (protein, UniProt O00161 1-211)
chain: MDNLSSEEIQQRAHQITDESLESTRRILGLAIESQDAGIKTITMLDEQKEQLNRIEEGLDQINKDMRETEKTLTELNKCCGLCVCPCNRTKNFESGKAYKTTWGDGGENSPCNVVSKQPGPVTNGQLQQPTTGAASGGYIKRITNDAREDEMEENLTQVGSILGNLKDMALNIGNEIDAQNPQIKRITDKADTNRDRIDIANARAKKLIDS

More lines, now with the values behind:

Molecule: SEC22B (Huh7) (from UniProt O75396 1-215)
binding (Flag-STX18 (Huh7)): binds

B3: SNAP23-SNARE2 (146-208) of the co-expressed mini-SNARE complex (domain or fragment, UniProt O00161 146-208)
chain: DAREDEMEENLTQVGSILGNLKDMALNIGNEIDAQNPQIKRITDKADTNRDRIDIANARAKKL
binding [3]: binds | binding [4]: binds

B4: endogenous SNAP23 (HepG2) (protein, UniProt O00161 1-211)
chain: B5 chain
binding [1]: binds

B6: GFP-SNAP23 (protein, UniProt O00161 1-211)
chain: B5 chain
binding [2]: binds
